This is one part of the list. These are further read-outs of the screen, such as a control signal, another cell line or another target. No call is given for them. Compounds called inactive in the main read-out are mostly missing here. Potencies come from curve fits of mixed quality, noted in brackets.
Test: qHTS Assay for Lipid Storage Modulators in Drosophila S3 Cells;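 on cell number change: cells counted by Cell Tracker Red CMTPX staining in the red channel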
Conditions: BODIPY lipid droplet fluorescence, 18-24 h; for cell number change: measured here: cell count max response, cells fed with added oleic acid
Procedure, shortened: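 Drosophila S3 cells loaded with oleic acid (400 uM, as added) and compounds at several concentrations; lipid droplets imaged by 488-nm laser-scanning cytometry, 500–530 nm intensity and object ratio to cell channel. Percent activity normalized to 20 uM Triacsin C.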

[1] = measured here: lipid fluorescence (Fed channel) AC50, cells fed with added oleic acid
[2] = measured here: cell number channel AC50, cells fed with added oleic acid

Row | SMILES | cell number change | AC50 [1] | AC50 [2]
1 | COc1ccc(C(O)(C(C)C)C(CN2CCOCC2)c2ccc(Cl)cc2)cc1 (stereo not given) | 6.38% | 32.6 µM [rising, single point] | 
2 | Cc1[nH]c2ccccc2c1C(=O)C(=O)NCc1ccco1 |  | 6.51 µM [falling, single point] | 6.51 µM [falling, single point]
3 | CCCCNC(=O)N(O)C1N(/N=C/c2cccnc2)C(=S)SC1(C)C (stereo not given) | 9.54% | 0.651 µM [rising, partial curve, poor fit] | 
4 | COC(=O)C1=C(C(=O)OC)[C@@H]2N(Cc3ccccc3)c3ccccc3[C@@]23C[C@@H](CO)N(C(=O)NC2CCCC2)C3=N1 | -1.47% |  | 0.13 µM [falling, full curve, poor fit]
5 | Cc1cc(Br)ccc1NC(=O)CN(C)C(=O)CCSc1ccc(F)cc1 | 8.57% | 29.1 µM [falling, single point] | 
6 | Cn1c(/C=C/c2cccc([N+](=O)[O-])c2)c([N+](=O)[O-])c(=O)n(C)c1=O | 6.08% | 29.1 µM [falling, single point] | 
7 | Cc1ccc(C(C(=O)NCC2CCCO2)N(C(=O)c2snc(C(N)=O)c2N)c2ccc(C(C)C)cc2)o1 (stereo not given) | -13.9% | 29.1 µM [rising, single point] | 
8 | O=C(Nc1ccccc1)N1N=C(c2ccc(F)cc2)CC1c1ccc(F)cc1 (stereo not given) | 66.8% | 29.1 µM [rising, partial curve, poor fit] | 29.1 µM [rising, single point]
9 | COc1ccc(CCN(C(=O)C(F)(F)F)C(C(=O)NC2CCCCC2)c2ccc(C)s2)cc1OC (stereo not given) | -29.6% |  | 
10 | COc1ccc(Cl)cc1S(=O)(=O)n1nnc2ccccc21 | -3.25% |  | 
11 | CC1Cc2ccccc2N1S(=O)(=O)c1cccc(C(=O)N2CC(=O)Nc3ccccc32)c1 (stereo not given) | 0.468% | 4.11 µM [rising, full curve] | 
12 | Cc1cccc2sc(NC(=O)CN3C(=O)NC4(CCCC4)C3=O)nc12 | 6.93% | 8.2 µM [rising, partial curve] | 
13 | Cc1cc(C)c(S(=O)(=O)N(C)CC(=O)NCC2CCCO2)c(C)c1 (stereo not given) | 14.9% | 9.2 µM [rising, partial curve] | 
14 | O=C(NCCCN1CCCC1=O)c1cccc(S(=O)(=O)Nc2ccccc2Cl)c1 | 16.8% | 4.11 µM [falling, partial curve, poor fit] | 
15 | O=C(O)CCCNS(=O)(=O)c1ccc(NCc2ccccc2)c(C(=O)O)c1 | -81.6% | 29.1 µM [falling, single point] | 29.1 µM [falling, partial curve, poor fit]
16 | CCS(=O)(=O)Nc1cccc(C2=NN(S(=O)(=O)c3ccc(C)cc3)C(c3cccs3)C2)c1 (stereo not given) | 32.1% |  | 1.3 µM [rising, partial curve]
17 | Cc1cccc(NC(=O)C(C)Oc2ccccc2C)n1 (stereo not given) | 121% | 29.1 µM [rising, partial curve] | 29.1 µM [rising, single point]
18 | COc1ccc(-c2cc(C(F)(F)F)nc(-n3cncn3)n2)cc1 |  | 6.51 µM [rising, single point] | 
19 | C/C(=N\Nc1nncc2ccccc12)c1ccc(Cl)c([N+](=O)[O-])c1 | -1.68% |  | 

Row | SMILES | cell number change | AC50 [1] | AC50 [2]
20 | COc1ccccc1NC(=O)Nc1ccccc1C#N | 9.12% | 29.1 µM [rising, single point] | 
21 | COc1ccccc1N=Nc1c(O)[nH]c2ccc(Br)cc12 | 137% |  | 4.61 µM [rising, full curve]
22 | CC(C)N(CCNC(=O)COc1ccc2oc3c(c2c1)CCCC3)C(C)C | 37% | 23.1 µM [rising, partial curve, poor fit] | 5.17 µM [rising, full curve, poor fit]
23 | O=C(Nc1ccc(O)cc1)c1ccc2c(c1)C(=O)N(N1C(=O)c3ccccc3C1=O)C2=O | -10.3% | 0.164 µM [falling, full curve] | 
24 | CC(C)(C)c1ccc(C(=O)NNc2cc(N3CCCCC3)nc(N3CCCCC3)n2)cc1 | -46.2% | 2.31 µM [falling, full curve] | 2.06 µM [falling, full curve]
25 | CNC(=O)C(Sc1nc(C)nc2c1oc1ccccc12)C(C)=O (stereo not given) | 61.6% | 3.26 µM [rising, partial curve] | 0.461 µM [rising, full curve, poor fit]
26 | CN(CC(=O)Nc1ccc(Cl)c(C(F)(F)F)c1)C(=O)c1cc(=O)[nH]c2ccccc12 | 114% |  | 13 µM [rising, partial curve]
27 | CC1=C(C(N)=O)C(c2ccc(C)o2)C(C(N)=O)=C(C)N1 |  | 0.58 µM [falling, single point] | 
28 | CCCc1cc(=O)[nH]c(SCC(=O)c2ccc(S(=O)(=O)N3CCCC3)cc2)n1 | -1.61% | 29.1 µM [rising, single point] | 
29 | O=S(=O)(NCC1(N2CCOCC2)CCCCC1)c1ccc(F)c(F)c1F | 13.4% | 32.6 µM [falling, partial curve, poor fit] | 
30 | Cc1ccc(N(CC(=O)Nc2ccc(S(=O)(=O)N3CCOCC3)cc2)S(C)(=O)=O)cc1C | -18.7% | 1.46 µM [falling, full curve, poor fit] | 
31 | Cn1c(=O)n(CC(=O)Nc2ccccc2)c2ccccc21 | -1.89% |  | 
32 | Cc1ccsc1/C=C/c1ccc2cccc(O)c2n1 | 55.6% | 29.1 µM [rising, single point] | 29.1 µM [rising, single point]
33 | CSCCC(NC(=O)c1ccccc1)C(=O)NCc1ccc(S(N)(=O)=O)cc1 (stereo not given) | -27.8% |  | 
34 | CCCN(CC(=O)Nc1ccccc1C)C(=O)c1ccc(C)c(S(=O)(=O)N2CCCCC2)c1 | 49.5% |  | 0.291 µM [rising, partial curve]
35 | O=C(NNC(=O)c1ccc(Cl)cc1Cl)c1csc(-c2cccnc2)n1 | 35.4% | 18.4 µM [rising, single point] | 29.1 µM [rising, single point]
36 | NS(=O)(=O)c1ccc(CCNC(=O)COC(=O)/C=C/c2ccc(OC(F)F)cc2)cc1 | -25% |  | 4.11 µM [rising, single point]
37 | Cc1cc(=O)[nH]c(SCn2nnc3ccccc3c2=O)n1 | 11.4% | 2.91 µM [falling, single point] | 
38 | COc1cc(NC(=O)CSc2nc3c(C)ccc(C)c3cc2C)c(C(=O)O)cc1OC | 36.8% | 20.6 µM [rising, single point] | 8.2 µM [rising, partial curve]

From compound 8 as far as 9, as listed above:
Row | SMILES | cell number change | AC50 [1] | AC50 [2]
8 | O=C(Nc1ccccc1)N1N=C(c2ccc(F)cc2)CC1c1ccc(F)cc1 (stereo not given) | 66.8% | 29.1 µM [rising, partial curve, poor fit] | 29.1 µM [rising, single point]
9 | COc1ccc(CCN(C(=O)C(F)(F)F)C(C(=O)NC2CCCCC2)c2ccc(C)s2)cc1OC (stereo not given) | -29.6% |  | 

The list continues:

Row | SMILES | cell number change | AC50 [1] | AC50 [2]
39 | COc1cccc(-n2c(C)nn(CCOc3ccccc3)c2=O)c1 | 17.3% |  | 
40 | CN1CCN(CCC(=O)Nc2ccccc2)CC1 | -8.92% |  | 
41 | NS(=O)(=O)c1ccc(CNC(=O)c2ccc3c(=O)n4c(nc3c2)CCC4)cc1 | -31.1% | 3.66 µM [falling, full curve] | 4.11 µM [falling, full curve]
42 | COc1cccc(CC(=O)Nc2nc(-c3ccc(OC)c(OC)c3)cs2)c1 | 30.3% |  | 0.461 µM [rising, full curve]
43 | O=C(NCCNC(=O)c1cnccn1)c1ccc(Cl)c(Cl)c1 | 7.89% |  | 
44 | CC(C#N)(NC(=O)CN1CCN(S(=O)(=O)c2ccccc2C#N)CC1)C1CC1 (stereo not given) | 8.39% | 11.6 µM [rising, partial curve] | 
45 | Cc1c(C(=O)Nc2ccc3c(c2)OCCO3)oc2ccc(Br)cc12 | -1.48% | 29.1 µM [falling, single point] | 
46 | COc1ccc(C(CCNCc2ccc(F)cc2)c2ccc(F)cc2)cc1 (stereo not given) |  | 29.1 µM [falling, single point] | 6.51 µM [falling, single point]
47 | O=C(CSc1nnc(SCc2ccc(Cl)cc2)s1)c1ccc2c(c1)OCO2 | -4.9% | 0.58 µM [rising, full curve, poor fit] | 
48 | O=C(NCc1ccccc1)c1nc(S(=O)(=O)Cc2ccccc2)ncc1Cl | 13% | 6.51 µM [falling, partial curve, poor fit] | 2.06 µM [falling, partial curve]
49 | O=c1[nH]n(Cc2ccccc2)c2ccccc12 | 30.7% |  | 1.3 µM [rising, full curve, poor fit]
50 | CCOc1ccc(-n2nc3c(=O)n(CCN4CCCCC4)nc(C)c3c2C)cc1 | 11.2% | 4.61 µM [rising, single point] | 
51 | COc1ccc(C2C3=C(CCCC3=O)Nc3c(-c4ccccc4)c(C)nn32)cc1 (stereo not given) | -27.7% | 8.2 µM [falling, partial curve, poor fit] | 
52 | O=C(c1cccc(S(=O)(=O)N2CCN(c3ccc(F)cc3)CC2)c1)N1CCCC(C(F)(F)F)C1 (stereo not given) |  | 25.9 µM [falling, single point] | 
53 | CC(=O)Oc1ccc(N2C(=O)CC(N3CCOCC3)C2=O)cc1 (stereo not given) | 6.21% |  | 
54 | CCOC(=O)CP(=O)(c1ccccc1)c1ccccc1 | -28.3% | 1.64 µM [falling, full curve] | 0.00517 µM [falling, full curve, poor fit]
55 | COCCNC(=O)CN(CC1CCCO1)C(=O)CCC(=O)Nc1ccccn1 (stereo not given) | -38.2% | 29.1 µM [falling, single point] | 29.1 µM [falling, single point]
56 | CCN(CC(=O)Nc1cc(Cl)ccc1C)C(=O)C1CC(=O)N(Cc2ccccc2)C1 (stereo not given) | 59% |  | 
57 | O=C(Cn1c(=O)c2cccn2c2ccc(F)cc21)NCCCN1CCN(c2ccccc2F)CC1 | 32.7% | 6.51 µM [rising, single point] | 23.1 µM [rising, single point]
